According to publication PMC10679859:
The exact form of at least one protein or probe is not confirmed. Where cells or extracts were used, other partners may take part. For some of these results: At least one verdict rests on a figure or table, not on a statement of the authors.

Chains of the proteins cited; added tags and fusions are not shown. Lines headed by an entry give the natural chain unless they say otherwise; changes in a name come on top.
UniProt P13010: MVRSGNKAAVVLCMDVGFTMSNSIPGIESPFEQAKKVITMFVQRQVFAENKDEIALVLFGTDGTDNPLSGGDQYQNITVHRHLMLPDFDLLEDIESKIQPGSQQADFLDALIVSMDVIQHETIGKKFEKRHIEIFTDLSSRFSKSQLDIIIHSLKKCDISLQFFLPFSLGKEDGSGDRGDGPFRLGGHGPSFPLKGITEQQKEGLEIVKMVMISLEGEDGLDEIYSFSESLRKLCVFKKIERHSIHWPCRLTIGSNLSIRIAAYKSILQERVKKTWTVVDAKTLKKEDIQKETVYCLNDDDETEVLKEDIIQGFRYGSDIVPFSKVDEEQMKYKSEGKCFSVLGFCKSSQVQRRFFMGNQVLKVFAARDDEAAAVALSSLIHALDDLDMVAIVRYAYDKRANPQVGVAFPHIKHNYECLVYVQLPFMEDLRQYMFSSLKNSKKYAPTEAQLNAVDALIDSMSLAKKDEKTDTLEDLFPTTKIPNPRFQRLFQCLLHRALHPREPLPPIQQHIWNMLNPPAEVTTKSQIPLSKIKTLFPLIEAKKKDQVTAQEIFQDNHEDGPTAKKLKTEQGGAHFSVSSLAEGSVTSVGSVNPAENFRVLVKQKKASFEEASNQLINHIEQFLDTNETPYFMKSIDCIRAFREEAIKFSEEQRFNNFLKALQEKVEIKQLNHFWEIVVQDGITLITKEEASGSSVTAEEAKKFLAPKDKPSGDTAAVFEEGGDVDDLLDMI

How the values were obtained:
[1] = molecular target: XRCC5 (X-ray repair cross-complementing protein 5) (UniProt P13010); assay: EMSA supershift (anti-XRCC5); settings: SH-SY5Y nuclear extract, 5 mM MgCl2, poly(dI-dC); EMSA: 5 ug SH-SY5Y nuclear extract, 1x LightShift binding buffer, 2.5% glycerol, 5 mM MgCl2, 50 ng/ul poly(dI-dC), 0.05% NP-40, 20 fmol probe, RT 30 min; protein in an extract
[2] = molecular target: XRCC5 (X-ray repair cross-complementing protein 5) (UniProt P13010); assay: DNA pull-down, MS and Western blot; settings: SH-SY5Y nuclear extract, poly(dI-dC), 4 C overnight, pull-down: 60 mM KCl, 12 mM HEPES pH 7.9, 25 mM Tris-HCl pH 7.5, 1 mM EDTA, 5% glycerol, 100 mM NaCl, 1 mM DTT, 10 ng/ul poly(dI-dC), protein in an extract

“AGCCCCATGGGCTCTCCTCACCTGGCTGGGGCATGTGGGG (double strand) [rs148582811-C probe]”: binds [1]; binds [2].
“AGCCCCATGGGCTCTCCTCATCTGGCTGGGGCATGTGGGG (double strand) [rs148582811-T probe]”: binds [1]; binds [2].
